# Results are given in words; binding and its absence hold for the method and conditions named. In cells and extracts the contact can be indirect. Some results given as binding are weak or reduced against the parent protein; the word gives no strength. Where a sequence is shown, tags or fusion partners need not be part of it.
# Chains of the proteins cited; added tags and fusions are not shown.
# UniProt Q9H4A6: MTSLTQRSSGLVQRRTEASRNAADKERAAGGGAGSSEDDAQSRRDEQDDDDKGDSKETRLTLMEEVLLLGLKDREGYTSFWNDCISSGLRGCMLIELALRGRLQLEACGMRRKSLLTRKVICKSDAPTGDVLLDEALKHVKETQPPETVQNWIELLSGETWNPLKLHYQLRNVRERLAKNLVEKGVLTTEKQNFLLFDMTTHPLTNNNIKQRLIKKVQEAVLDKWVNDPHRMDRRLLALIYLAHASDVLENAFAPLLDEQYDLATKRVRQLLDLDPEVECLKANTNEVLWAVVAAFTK
# Assays:
# [1] = target: T1, ST3Gal-II-HA (UniProt Q16842); assay: co-IP; lysates of transiently transfected T98G cells (for ST3Gal-II/β3GalT-IV: control or GOLPH3 knockdown cells); lysis buffer 50 mM Tris-HCl pH 7.2, 1.0% Triton X-100, 300 mM NaCl; IP with anti-HA mAb and protein G-Sepharose, 4 °C; Western blot with anti-RFP, anti-GFP or anti-HA
# T1 sequence: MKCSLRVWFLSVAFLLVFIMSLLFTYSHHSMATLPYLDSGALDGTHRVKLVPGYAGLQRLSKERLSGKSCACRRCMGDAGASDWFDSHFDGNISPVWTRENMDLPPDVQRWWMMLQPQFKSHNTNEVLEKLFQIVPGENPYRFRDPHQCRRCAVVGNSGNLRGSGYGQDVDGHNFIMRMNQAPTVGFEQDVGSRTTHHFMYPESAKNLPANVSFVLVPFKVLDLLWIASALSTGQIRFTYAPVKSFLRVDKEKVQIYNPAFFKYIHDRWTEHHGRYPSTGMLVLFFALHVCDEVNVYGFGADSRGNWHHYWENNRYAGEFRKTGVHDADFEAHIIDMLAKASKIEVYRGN
# [2] = target: T2, β3GalT-IV^(1−52)-HA-YFP (UniProt Q9Z0F0); assay: as above
# T2 sequence: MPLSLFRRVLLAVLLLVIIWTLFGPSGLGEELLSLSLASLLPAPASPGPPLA
substance,measurement,setting,value
GOLPH3-GFP (from UniProt Q9H4A6 1-298),binding,[1],binds
same,binding,[2],binds
